Results as given in PubChem BioAssay AID445 (National Center for Advancing Translational Sciences (NCATS), 2006).
Where “and” joins values, the source holds several entries; their conditions need not be identical. Equal values may be shown once. Some of the results follow. The main result of the screen is listed elsewhere. These columns were measured beside it and carry no call. Compounds called inactive in the main read-out are mostly missing here. Words in brackets tell the shape of the fitted curve; partial curves, single points and poor fits give uncertain potencies.

Experiment: IkB Signaling
Conditions: ABC-DLBCL IkBa-CBG/CBR dual luciferase ratio (green luciferase fused to IkBa over red control in OCI-Ly3 lymphoma cells), 4 h
Method in brief: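 Curves were fitted separately to fusion (green), unfused (red) and ratio luminescence, then classed by r2, magnitude and activity. Cells: OCI-Ly3, 4 h compound plus doxycycline at 37C; 10 uM MG-132 defined full response.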

[1] = measured here: control luc red channel
[2] = measured here: IkB-luc green channel

SMILES	AC50 [1]	AC50 [2]
CCCC12CN3CC(C)(CN(C1)C3c1c(C)[nH]c(=O)[nH]c1=O)C2=O (stereo unspecified)	3.16 µM [rising, single point]	
Cc1ccc(-c2nn3c(=O)cc(CN4CCN(C(=O)COc5ccc(C)c(C)c5)CC4)nc3s2)cc1	39.8 µM [falling, single point]	
CCOc1cc2[nH]c(=S)n(CCCC(=O)N3CCC4(CC3)OCCO4)c(=O)c2cc1OCC	5.01 µM [falling, partial curve]	
CCCC1=Nc2cc(C(=O)NCCCN(CC)CC)ccc2Sc2ccccc21	31.6 µM [falling, single point]	
COc1ccc(Br)cc1C1SCC(=O)Nc2c1c(C)nn2-c1ccccc1C (stereo unspecified)	6.31 µM [rising, single point]	
CCN(CC)C(=O)c1ccc(NC(=O)c2ccc(-c3nn(C)c(=O)c4ccccc34)cc2)cc1	31.6 µM [falling, single point]	
Cc1ccc(-c2nc(CN3C(=O)CN=C(c4ccccc4)c4ccccc43)c(C)o2)cc1	15.8 µM [falling, single point]	
COc1ccccc1C1SCC(=O)Nc2c1c(C)nn2-c1cccc(C)c1 (stereo unspecified)	25.1 µM [falling, single point]	
COc1cccc(NC(=O)c2cccn(Cc3ccccc3C)c2=O)c1	20 µM [falling, single point]	
Cc1ccc(Cn2cccc(C(=O)Nc3ccc4c(c3)OCCO4)c2=O)cc1	25.1 µM [falling, partial curve]	
CCOc1ccc2nc(NC(=O)c3cccn(Cc4ccccc4Cl)c3=O)sc2c1	3.98 µM [rising, partial curve, poor fit]	
O=C1CS[C@@H](c2ccccc2Cl)c2cc(Cl)ccc2N1	39.8 µM [falling, single point]	
Cc1ccccc1CN1C(=O)C(C)N=C(c2ccccc2)c2ccccc21 (stereo unspecified)	15.8 µM [falling, partial curve]	
CCOC(=O)C(O)(c1ccc(N)c(OC)c1)C(F)(F)F (stereo unspecified)	3.98 µM [falling, full curve]	
Cc1ccc(C(=O)Nc2ccccc2)cc1S(=O)(=O)N1CCCC1	31.6 µM [falling, single point]	
CC(C)(O)/C=C\C(=O)[C@](C)(O)[C@H]1[C@H](O)C[C@]2(C)[C@@H]3CC=C4[C@@H](C=C(O)C(=O)C4(C)C)[C@]3(C)C(=O)C[C@@]12C	0.501 µM [falling, full curve]	1.58 µM [rising, partial curve]
Cn1cc(C(=O)C(=O)N[C@H]2CN3CCC2CC3)c2ccccc21	1.58 µM [falling, full curve]	
Cc1ccc(OCC(=O)N2CCN(CCc3ccncc3)CC2)cc1	2 µM [falling, single point]	
COc1ccc(OCC(=O)N2CCN(Cc3ccc(SC)cc3)CC2)cc1	15.8 µM [falling, partial curve]	
COc1ccc2c(c[n+](C)c3c4cc5c(cc4ccc23)OCO5)c1OC	6.31 µM [falling, full curve]	7.94 µM [falling, full curve]

SMILES	AC50 [1]	AC50 [2]
c1ccc2c(c1)[I+]c1ccccc1-2	15.8 µM [falling, partial curve]	3.98 µM [rising, full curve]
O=c1oc2ccccc2c(O)c1Cc1c(O)c2ccccc2oc1=O	0.2 µM [falling, full curve]	
Cc1nccc2c1[nH]c1ccccc12	31.6 µM [falling, partial curve]	
COc1cccc(-c2nn3c(=O)cc(CN4CCN(C(=O)COc5ccccc5C)CC4)nc3s2)c1	31.6 µM [falling, single point]	
CC(C)(Cc1c[nH]c2ccc(Cl)cc12)NCCOc1ccccc1OCC1CC1	31.6 µM [falling, partial curve]	
CCCCn1c(=O)c(C(=O)Nc2ccccc2S(N)(=O)=O)c(O)c2ccccc21	3.98 µM [falling, partial curve]	
CC[C@@]1(O)C(=O)OCc2c1cc1n(c2=O)Cc2cc3c(NC(=O)CN)cccc3nc2-1	3.16 µM [falling, partial curve]	
Cc1c2ccncc2c(C)c2c1[nH]c1ccccc12	12.6 µM [falling, partial curve] and 3.98 µM [falling, partial curve]	7.94 µM [falling, partial curve]
COc1ccc(C(c2c(O)c3ccccc3oc2=O)c2c(C)n(C)n(-c3ccccc3)c2=O)cc1 (stereo unspecified)	10 µM [falling, partial curve]	
N#Cc1cc2c(nc1SCC(=O)Nc1cccc(C(F)(F)F)c1)C1CCN2CC1	0.631 µM [rising, full curve, poor fit]	
CC(=O)c1cccc(NC(=O)c2cccn(Cc3cccc(C)c3)c2=O)c1	39.8 µM [falling, single point]	
Oc1c(Cl)cc(Cl)cc1CN1CCN(Cc2ccccc2)CC1	10 µM [falling, partial curve]	
COc1ccc(NC(=O)CN2C(=O)C(C)N=C(c3ccccc3)c3ccccc32)cc1OC (stereo unspecified)	20 µM [falling, single point]	
COc1ccc(C[C@H]2NC[C@H](O)[C@@H]2OC(C)=O)cc1	0.0631 µM [falling, full curve]	
COc1ccc(C(=O)c2c(C)n(CCN3CCOCC3)c3cc(I)ccc23)cc1	39.8 µM [falling, partial curve]	
COC(=O)CN1CN(c2ccccc2)C2(CCN(Cc3ccc4ccccc4c3)CC2)C1=O	39.8 µM [falling, partial curve]	
Cc1ccc(S(=O)(=O)N[C@@H](CCCCN)C(=O)CCl)cc1		31.6 µM [rising, partial curve]
Nc1c(C(=O)Nc2ccc(F)c(Cl)c2)sc2nc3c(cc12)N1CCC3CC1	25.1 µM [falling, partial curve]	
CC(C)(O)[C@H]1O[C@@H]2CC[C@]3(C)[C@@]4(C)c5[nH]c6ccccc6c5C[C@@H]4CC[C@]3(O)C2=CC1=O	31.6 µM [falling, partial curve]	
CCCCC/C=C\C/C=C\C/C=C\C/C=C\CCCC(=O)Nc1ccc(O)cc1	25.1 µM [falling, partial curve, poor fit]	

A stretch from further up:
SMILES	AC50 [1]	AC50 [2]
Oc1c(Cl)cc(Cl)cc1CN1CCN(Cc2ccccc2)CC1	10 µM [falling, partial curve]	
COc1ccc(NC(=O)CN2C(=O)C(C)N=C(c3ccccc3)c3ccccc32)cc1OC (stereo unspecified)	20 µM [falling, single point]	
COc1ccc(C[C@H]2NC[C@H](O)[C@@H]2OC(C)=O)cc1	0.0631 µM [falling, full curve]	

Pulled by compound from the entries so far, two records:
SMILES	AC50 [1]	AC50 [2]
COc1ccc(C(c2c(O)c3ccccc3oc2=O)c2c(C)n(C)n(-c3ccccc3)c2=O)cc1 (stereo unspecified)	10 µM [falling, partial curve]	
COC(=O)CN1CN(c2ccccc2)C2(CCN(Cc3ccc4ccccc4c3)CC2)C1=O	39.8 µM [falling, partial curve]	

Next structures.

SMILES	AC50 [1]	AC50 [2]
O=C(Nc1ccon1)c1cccn(Cc2cccc([N+](=O)[O-])c2)c1=O		5.01 µM [rising, single point]
O=C(Nc1ccc2c(c1)OCO2)c1cccn(Cc2ccccc2)c1=O	39.8 µM [falling, single point]	
CCCCCn1c(=O)c(C(=O)Nc2ccncc2)c(O)c2ccccc21	0.631 µM [falling, full curve, poor fit]	
FC(F)(F)c1ccc2c(c1)ncn2C1CCN(Cc2nnnn2C2CCCCC2)CC1	15.8 µM [falling, partial curve]	
COC(=O)N1CCN(C(=O)Cc2ccc(Cl)c(Cl)c2)[C@H](CN2CCCC2)C1	7.94 µM [rising, full curve]	
Cc1ccc(-c2nc(CN3C(=O)CN=C(c4ccccc4Cl)c4cc(Cl)ccc43)c(C)o2)cc1	39.8 µM [falling, single point]	
Cc1cccc(Cn2cccc(C(=O)Nc3nnc(C)s3)c2=O)c1	2 µM [falling, full curve, poor fit]	
O=C1CC(c2ccc(C(F)(F)F)cc2)c2c(c3ccccc3oc2=O)O1 (stereo unspecified)	6.31 µM [falling, partial curve]	
ClC1=C(Cl)C2(Cl)C3C4C=CC(C4)C3C1(Cl)C2(Cl)Cl (stereo unspecified)	12.6 µM [rising, full curve]	15.8 µM [rising, full curve]
CCC(C)(C)n1nnnc1C(c1cccs1)N1CC=C(c2ccc(F)cc2)CC1 (stereo unspecified)	25.1 µM [falling, partial curve]	
COCCCNC(=O)c1c(NC(=O)c2ccco2)n(Cc2ccccc2)c2nc3ccccc3nc12		25.1 µM [rising, partial curve]
COc1ccc2c(c1)[nH]c1c(C)nccc12	3.98 µM [falling, partial curve]	
Oc1c(Cl)c(Cl)c(Cl)c(Cl)c1Cl	7.94 µM [falling, full curve]	
Cc1ccc2c(=O)n(-c3cccc(Cl)c3)c(=O)[nH]c2c1	2.51 µM [rising, partial curve]	
CCN(CC)C(=O)c1ccc(NC(=O)COc2ccc(-c3nn(C)c(=O)c4ccccc34)cc2)cc1	15.8 µM [falling, partial curve]	
O=C(C1CC(c2ccc(Cl)c(Cl)c2)=NO1)N1CCC2(CC1)OCCO2 (stereo unspecified)	31.6 µM [falling, single point]	
COc1ccccc1-c1nn2c(=O)cc(CN3CCN(C(=O)COc4ccccc4Cl)CC3)nc2s1	20 µM [falling, single point]	
Cc1ccccc1-c1nc(CN2C(=O)CN=C(c3ccccc3)c3ccccc32)c(C)o1	15.8 µM [falling, partial curve]	
COc1ccc(C[C@@H]2C(=O)N[C@H](C)C(=O)N(C)[C@@H]3C(=O)N(C)[C@@H](Cc4ccc(O)c(c4)Oc4ccc(cc4)[C@H]3O)C(=O)N[C@@H](C)C(=O)N[C@H](C)C(=O)N2C)cc1	0.126 µM [falling, full curve]	
CC(C)[C@@]1(NC(=O)[C@H]2C[C@H]3c4cccc5[nH]cc(c45)C[C@@H]3N(C)C2)O[C@]2(O)[C@H]3CCCN3C(=O)[C@H](Cc3ccccc3)N2C1=O	15.8 µM [falling, partial curve]	20 µM [falling, partial curve]
